Laboratory results: PubChem BioAssay AID493246 (Drosophila RNAi Screening Center, 2011)
In all, the deposit lists about 21,000 reagents; this is a random part of those with a known target gene and a result. Of all reagents, 429 (2%) are marked active. 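Values are raw and not normalised between plates; calls rest on per-plate z-scores that were not deposited.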 Entries without a mark were called inactive. The numbers tell different reagents against one gene apart. No sequences are given here. Not stated in the record: the amount of reagent, the time to read-out.

Assay: 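Genes fly cells need to grow and stay alive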 (primary screen)
System: Drosophila Kc and S2R+ cells
Knock-down reagent: long dsRNA against Drosophila genes
Measurement: 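Raw, unnormalised count of remaining cells in each well; per-plate z-scores of cell number underlie the calls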
Direction: Kc cell number and S2R+ cell number: higher = more cells remaining
Active means: 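Active when the per-plate z-score of cell number is 3 or more in the direction of fewer cells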

Which result is listed for CNT1 (GeneID 35915)?
Kc cell number, rep 1: 1.49e6; Kc cell number, rep 2: 1.53e6; S2R+ cell number, rep 1: 1.27e6; S2R+ cell number, rep 2: 1.30e6

With CG34281 (GeneID 50039), what does the deposit list?
Kc cell number, rep 1: 1.43e6; Kc cell number, rep 2: 1.46e6; S2R+ cell number, rep 1: 1.03e6; S2R+ cell number, rep 2: 1.03e6

What did the screen give for mRpL45 (GeneID 42671)?
Kc cell number, rep 1: 1.56e6; Kc cell number, rep 2: 1.51e6; S2R+ cell number, rep 1: 8.30e5; S2R+ cell number, rep 2: 9.60e5

With CG6136 (GeneID 41877), what does the deposit list?
Kc cell number, rep 1: 1.59e6; Kc cell number, rep 2: 1.52e6; S2R+ cell number, rep 1: 1.28e6; S2R+ cell number, rep 2: 1.44e6

Which result is listed for Cpr50Ca (GeneID 36523) #1?
Kc cell number, rep 1: 1.52e6; Kc cell number, rep 2: 1.52e6; S2R+ cell number, rep 1: 1.02e6; S2R+ cell number, rep 2: 1.19e6

With Cpr50Ca (GeneID 36523) #2, what was measured?
Kc cell number, rep 1: 1.64e6; Kc cell number, rep 2: 1.63e6; S2R+ cell number, rep 1: 1.20e6; S2R+ cell number, rep 2: 1.39e6

What is on record for Cpr50Ca (GeneID 36523) #3?
Kc cell number, rep 1: 1.60e6; Kc cell number, rep 2: 1.59e6; S2R+ cell number, rep 1: 1.23e6; S2R+ cell number, rep 2: 1.35e6

With CG15597 (GeneID 40767), what does the deposit list?
Kc cell number, rep 1: 1.68e6; Kc cell number, rep 2: 1.91e6; S2R+ cell number, rep 1: 1.27e6; S2R+ cell number, rep 2: 1.41e6

An excerpt from above, showing only “S2R+ cell number, rep 1”.
Cpr50Ca (GeneID 36523) #2 = 1.20e6
Cpr50Ca (GeneID 36523) #3 = 1.23e6

The list goes on:
How did the screen score CG30479 (GeneID 36631)?
Kc cell number, rep 1: 1.55e6; Kc cell number, rep 2: 1.60e6; S2R+ cell number, rep 1: 1.30e6; S2R+ cell number, rep 2: 1.37e6

What did the screen give for Coq6 (GeneID 33777)?
Kc cell number, rep 1: 1.25e6; Kc cell number, rep 2: 1.28e6; S2R+ cell number, rep 1: 4.75e5; S2R+ cell number, rep 2: 8.28e5

With CG13557 (GeneID 37717), how do the results read?
Kc cell number, rep 1: 1.74e6; Kc cell number, rep 2: 1.84e6; S2R+ cell number, rep 1: 1.23e6; S2R+ cell number, rep 2: 1.33e6

What did the screen give for CYTB (retired record) (GeneID 192472)?
Kc cell number, rep 1: 1.66e6; Kc cell number, rep 2: 1.62e6; S2R+ cell number, rep 1: 1.15e6; S2R+ cell number, rep 2: 1.27e6

For vir (GeneID 47869), what does the deposit list?
Kc cell number, rep 1: 1.59e6; Kc cell number, rep 2: 1.66e6; S2R+ cell number, rep 1: 1.21e6; S2R+ cell number, rep 2: 1.17e6

With papi (GeneID 33401), how do the results read?
Kc cell number, rep 1: 1.01e6; Kc cell number, rep 2: 1.28e6; S2R+ cell number, rep 1: 4.72e5; S2R+ cell number, rep 2: 5.27e5

What did the screen give for Tif-IA (GeneID 35454) #1?
Kc cell number, rep 1: 1.28e6; Kc cell number, rep 2: 1.35e6; S2R+ cell number, rep 1: 1.06e6; S2R+ cell number, rep 2: 1.11e6

Which result is listed for Tif-IA (GeneID 35454) #2?
Kc cell number, rep 1: 1.65e6; Kc cell number, rep 2: 1.71e6; S2R+ cell number, rep 1: 1.15e6; S2R+ cell number, rep 2: 2.19e5

For CG7730 (GeneID 39908), how do the results read?
Kc cell number, rep 1: 1.50e6; Kc cell number, rep 2: 1.51e6; S2R+ cell number, rep 1: 1.26e6; S2R+ cell number, rep 2: 1.29e6

With CG10958 (GeneID 31736), how do the results read?
Kc cell number, rep 1: 5.90e5; S2R+ cell number, rep 1: 8.68e5

For Or82a (GeneID 318778), what was measured?
Kc cell number, rep 1: 1.71e6; Kc cell number, rep 2: 1.92e6; S2R+ cell number, rep 1: 1.26e6; S2R+ cell number, rep 2: 1.37e6

With CG4988 (GeneID 34586), what was measured?
Kc cell number, rep 1: 1.77e6; Kc cell number, rep 2: 1.75e6; S2R+ cell number, rep 1: 1.28e6; S2R+ cell number, rep 2: 1.35e6

What is on record for CG10948 (GeneID 39459)?
Kc cell number, rep 1: 1.59e6; Kc cell number, rep 2: 1.73e6; S2R+ cell number, rep 1: 1.34e6; S2R+ cell number, rep 2: 1.56e6
